At least one compound was matched to its structure with a doubt left.
Test system: Human melanoma cancer cells (SK-MEL-28)
Assay: Cell growth inhibition assay (CellTiter-Glo), SK-MEL-28
Type: cell-based
Details: Table 3b (later runs); average for the one or more runs; 3 days incubation

SMILES	IC50 for SK-MEL-28
CNc1nccc(-c2sc(C(C)C)nc2-c2cccc(NS(=O)(=O)c3cccc(F)c3)c2)n1 [Example 86, 3-Fluoro-N-{3-[5-[2-(methylamino)-4-pyrimidinyl]-2-(1-methylethyl)-1,3-thiazol-4-yl]phenyl}benzenesulfonamide]	>1000 nM-10 pM
CC(C)CNc1nccc(-c2scnc2-c2cccc(NS(=O)(=O)c3c(F)cccc3F)c2)n1 [Example 115, 2,6-Difluoro-N-[3-(5-{2-[(2-methylpropyl)amino]-4-pyrimidinyl}-1,3-thiazol-4-yl)phenyl]benzenesulfonamide]	>1000 nM-10 pM
